The source of these data is paper doi:10.1101/2025.08.19.671117.

Amino acid sequences for entries named in this document (tags omitted). Residues count along the entry.
UniProt P25705, residues 44-553: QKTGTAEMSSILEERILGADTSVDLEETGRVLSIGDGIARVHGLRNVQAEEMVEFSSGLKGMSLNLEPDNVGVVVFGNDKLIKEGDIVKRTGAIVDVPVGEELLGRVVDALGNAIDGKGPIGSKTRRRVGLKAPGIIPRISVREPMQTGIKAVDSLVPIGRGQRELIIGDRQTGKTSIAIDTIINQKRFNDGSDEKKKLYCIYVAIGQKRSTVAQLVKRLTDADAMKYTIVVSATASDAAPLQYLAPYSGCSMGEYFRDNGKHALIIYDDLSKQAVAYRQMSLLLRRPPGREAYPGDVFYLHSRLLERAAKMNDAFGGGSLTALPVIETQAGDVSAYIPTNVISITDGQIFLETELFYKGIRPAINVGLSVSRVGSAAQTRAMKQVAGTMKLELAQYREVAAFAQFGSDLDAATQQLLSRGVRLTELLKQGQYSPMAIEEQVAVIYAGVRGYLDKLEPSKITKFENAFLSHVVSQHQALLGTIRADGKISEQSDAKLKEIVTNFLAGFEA
UniProt Q5VYX0, residues 18-342: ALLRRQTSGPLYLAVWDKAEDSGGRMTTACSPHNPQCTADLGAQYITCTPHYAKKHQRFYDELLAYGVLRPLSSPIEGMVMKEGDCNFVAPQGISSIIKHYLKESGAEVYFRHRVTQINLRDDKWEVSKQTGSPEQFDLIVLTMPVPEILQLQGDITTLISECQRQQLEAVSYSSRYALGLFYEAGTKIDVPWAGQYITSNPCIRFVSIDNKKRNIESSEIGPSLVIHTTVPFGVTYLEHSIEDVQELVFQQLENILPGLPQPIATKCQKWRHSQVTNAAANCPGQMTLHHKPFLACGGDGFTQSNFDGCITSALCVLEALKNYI

Assay in all cases: proximity ligation
Assay [1] deals with ATP synthase beta subunit (ATP5β) (human (endogenous in HeLa)) (UniProt P06576).
The target in assay [2] is T1, OSCP, a component of the peripheral stator of the ATP synthase (human (endogenous in HeLa)) (UniProt P48047).
T1 sequence: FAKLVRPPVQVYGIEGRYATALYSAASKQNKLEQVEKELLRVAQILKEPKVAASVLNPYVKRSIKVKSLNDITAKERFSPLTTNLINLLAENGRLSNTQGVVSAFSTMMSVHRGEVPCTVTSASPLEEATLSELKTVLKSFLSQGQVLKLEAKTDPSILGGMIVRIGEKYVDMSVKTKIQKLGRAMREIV

Assay [3] deals with ATP synthase alpha subunit (ATP5α) (human (endogenous in HeLa)) (UniProt P25705).

These are yes or no findings as the source states them, for the method shown. Binding seen in cells or lysates may run through a third protein. Some results given as binding are weak or reduced against the parent protein; the word gives no strength.

For “Renalase (human RNLS-1) (from UniProt Q5VYX0 18-342)”, the binding entry is listed as “binds” in assay [1], “no binding” in assay [2] and “binds” in assay [3].
